Measured values taken from PMC10966776.
These are yes or no findings as the source states them, for the method shown. Binding seen in cells or lysates may run through a third protein. Some binding calls cover weakened binding; strength is not graded here. Sequences can lack the tags named with a protein.

Amino acid sequences for entries named in this document (tags omitted).
UniProt P62330: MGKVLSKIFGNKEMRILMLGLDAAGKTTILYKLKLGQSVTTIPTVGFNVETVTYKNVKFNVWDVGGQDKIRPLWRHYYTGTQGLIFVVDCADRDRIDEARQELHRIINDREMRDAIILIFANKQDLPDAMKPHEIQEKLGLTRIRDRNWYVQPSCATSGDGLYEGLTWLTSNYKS

Biological target: T1, GST-GGA3 (amino acids 1-316) (UniProt Q9NZ52)
T1 sequence: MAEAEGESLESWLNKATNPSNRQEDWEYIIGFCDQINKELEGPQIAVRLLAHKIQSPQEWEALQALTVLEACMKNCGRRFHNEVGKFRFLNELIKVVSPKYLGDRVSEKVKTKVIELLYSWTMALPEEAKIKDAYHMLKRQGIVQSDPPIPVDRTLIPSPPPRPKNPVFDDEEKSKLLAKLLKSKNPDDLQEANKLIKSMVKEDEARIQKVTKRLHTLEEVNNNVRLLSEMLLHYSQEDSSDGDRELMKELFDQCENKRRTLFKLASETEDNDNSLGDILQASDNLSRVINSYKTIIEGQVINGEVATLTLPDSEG
Experiment: pull-down; 50 ug GST-GGA3 1-316 precoupled to Glutathione-Sepharose beads, 2 mg lysate of HeLa cells transduced with GFP-Rab35 wt or GFP-Rab35 R27H; 50 mM Tris-HCl pH 7.4, 150 mM NaCl, 10 mM MgCl2, 1% Triton, 0.5% deoxycholate, 0.1% SDS, 5% glycerol; 1 h at 4 °C; anti-Arf6 immunoblot; only the target purified

- binding: binds
Substance: Arf6 (from UniProt P62330 1-175)
